Consider 15 compounds from US12139458B2, “(2,5-dioxopyrrolidin-1-yl)(phenyl)-acetamide derivatives and their use in the treatment of neurological diseases” (UNIWERSYTET JAGIELLONSKI, priority 2019, dated 2024).

Common to all, as to format: in vivo
Data set [1] concerns male Swiss albino mice (CD-1). The data set can be described thus: Psychomotor seizure test 6 Hz (32 mA). To be noted: protective index, rotarod TD50 / 6 Hz 32 mA ED50. How it is done:
(§1) The male Swiss albino mice (CD-1) weighing 18-26 g were used. All procedures were carried out in accordance with applicable Polish and international guidelines on the ethics of animal testing, after obtaining appropriate institutional approval. The substances were administered intraperitoneally (i.p.), in 1% aqueous solution of Tween, as single injections with a volume of 10 ml/kg, 30 minutes before the given test. Screening was performed on groups consisted of 4 mice. The average effective dose (ED50) in given test and toxic dose in the rotarod test (TD50) was estimated based on the results obtained in 3-4 groups of animals consisting of 6 mice. All tests were carried out based on the procedures described in the specialist literature.
In the 6 Hz test, seizures were induced by an electric stimulus of 32 mA and/or 44 mA and a frequency of 6 pulses per second. An electrical pulse was generated using an electric shock generator (ECT Unit 57800; Ugo Basile, Gemonio, Italy) and delivered to the animal using ocular electrodes. Before starting the test, the eye surface was gently moistened with a solution of local anesthetic (1% lidocaine solution). The study was conducted 30 minutes after intraperitoneal administration of the compounds at various doses. An electrical pulse was delivered continuously for a period of 3 seconds, followed by observation of the animal for a period of 10 seconds. During this time, immobility or stun associated with rearing, forelimb clonus, twitching of the vibrissae and Straub's tail were observed. These symptoms persist throughout the observation period, indicating the occurrence of psychomotor seizures in mice. Mice resuming normal behavior within 10 s after stimulation were considered as protected (Barton, M. E.; Klein, B. D.; Wolf, H. H.; White, H. S. Epilepsy Res. 2001, 47, 217-227; Wojda, E.; Wlaź, A.; Patsalos, P. N.; Łuszczki, J. J. Epilepsy Res. 2009, 86, 163-174).
(§2) To perform a statistical evaluation of the results, one-way ANOVA variance analysis and Dunnett's post hoc test (multiple comparison test) were used. The value at the significance level p<0.05 was considered statistically significant.
Background: The rotarod test checks motor coordination on a turning rod.

The test system of data set [2] is male Swiss albino mice (CD-1). The data set can be described thus: Maximal electroshock seizure test (MES). To be noted: protective index, rotarod TD50 / MES ED50. How it is done: as §1
In the MES test, the seizures were induced by an electrical stimulus lasting of 0.2 s duration, 500 V voltage and 25 mA intensity. The electrical stimuli was generated using an electric shock generator (Rodent shocker, Type 221, Hugo Sachs Elektronik, Germany) and delivered to the animal using electrodes placed on the auricles. The study was conducted 30 minutes after intraperitoneal administration of the compounds at various doses. During the experiment, the number of animals that experienced a seizure episode in the form of tonic extension of the hind limbs was counted (Kamiński, K.; Rapacz, A.; Łuszczki, J. J.; Latacz, G.; Obniska, J.; Kieć-Kononowicz, K.; Filipek, B. Bioorg. Med. Chem. 2015, 23, 2548-2561; Castel-Branco, M. M.; Alves, G. L.; Figueiredo, I. V.; Falcão, A. C.; Caramona, M. M. Methods Find. Exp. Clin. Pharmacol. 2009, 31, 101-106).
as §2
(The maximal electroshock test induces tonic seizures with an electrical stimulus.)

For data set [3], the system named is male Swiss albino mice (CD-1). The data set can be described thus: Subcutaneous pentylenetetrazole seizure test (scPTZ). To be noted: protective index, rotarod TD50 / scPTZ ED50. The method, then: as §1
In the scPTZ test, seizures were induced by subcutaneous administration of pentylenetetrazole (PTZ) at a dose of 100 mg/kg. This caused clonic seizures with accompanying loss of the righting reflex. Test compounds were administered 30 minutes before the experiment. After PTZ administration, the animals were placed individually in transparent containers and observed for a period of 30 minutes for the occurrence of clonic seizures. During this time, the latency of the first onset of clonic seizures, defined as clonus of the whole body lasting at least 3 seconds with loss of the righting reflex and the number of seizure episodes during the test were noted and compared with control group. The absence of clonic convulsions within the observed time period was interpreted as the compound's ability to protect against PTZ-induced seizures (Ferreri, G.; Chimirri, A.; Russo, E.; Gitto, R.; Gareri, P.; De Sarro, A.; De Sarro, G. Pharmacol. Biochem. Behav. 2004, 77, 85-94; Łączkowski, K.; Sałat, K.; Misiura, K.; Podkowa, A.; Malikowska, N. J. Enzyme Inhib. Med. Chem. 2016, 31, 1576-82).
as §2

In data set [4] the test system is male Swiss albino mice (CD-1). The data set can be described thus: Psychomotor seizure test 6 Hz (44 mA). To be noted: protective index, rotarod TD50 / 6 Hz 44 mA ED50. How it is done:
All procedures were carried out in accordance with applicable Polish and international guidelines on the ethics of animal testing, after obtaining appropriate institutional approval. The substances were administered intraperitoneally (i.p.), in 1% aqueous solution of Tween, as single injections with a volume of 10 ml/kg, 30 minutes before the given test. Screening was performed on groups consisted of 4 mice. […] All tests were carried out based on the procedures described in the specialist literature.
In the 6 Hz test, seizures were induced by an electric stimulus of 32 mA and/or 44 mA and a frequency of 6 pulses per second. […] Before starting the test, the eye surface was gently moistened with a solution of local anesthetic (1% lidocaine solution). The study was conducted 30 minutes after intraperitoneal administration of the compounds at various doses. An electrical pulse was delivered continuously for a period of 3 seconds, followed by observation of the animal for a period of 10 seconds. During this time, immobility or stun associated with rearing, forelimb clonus, twitching of the vibrissae and Straub's tail were observed. These symptoms persist throughout the observation period, indicating the occurrence of psychomotor seizures in mice.
as §2

`O=C(C(c1ccccc1)N1C(=O)CCC1=O)N1CCN(c2ccccc2)CC1` (racemic) [Compound 2, 1-(2-Oxo-1-phenyl-2-(4-phenylpiperazin-1-yl)ethyl)pyrrolidine-2,5-dione]: in data set [1], the “PI (TD50/ED50) (6 Hz, 32 mA)” value was more than 3.6. In addition, the “PI (TD50/ED50) (MES)” value in data set [2] was more than 3.3. Also, in data set [3], the “PI (TD50/ED50) (scPTZ)” value is given as more than 3.0.

Turning to `O=C(C(c1ccccc1)N1C(=O)CCC1=O)N1CCN(c2cccc(Cl)c2)CC1` (racemic) [Compound 3, 1-(2-(4-(3-Chlorophenyl)piperazin-1-yl)-2-oxo-1-phenylethyl)pyrrolidine-2,5-dione], the “PI (TD50/ED50) (6 Hz, 32 mA)” value in data set [1] is 3.6. Also, in data set [2], the “PI (TD50/ED50) (MES)” value worked out at 3.9. For the same compound, the “PI (TD50/ED50) (scPTZ)” value in data set [3] came to 2.7.

As for `O=C(C(c1ccccc1)N1C(=O)CCC1=O)N1CCN(c2cc(Cl)cc(Cl)c2)CC1` (racemic) [Compound 4, 1-(2-(4-(3,5-Dichlorophenyl)piperazin-1-yl)-2-oxo-1-phenylethyl)pyrrolidine-2,5-dione], the “PI (TD50/ED50) (6 Hz, 32 mA)” value in data set [1] is more than 17.0. For the same compound, in data set [2], the “PI (TD50/ED50) (MES)” value was more than 4.4.

With `Cc1cccc(N2CCN(C(=O)C(c3ccccc3)N3C(=O)CCC3=O)CC2)c1` (racemic) [Compound 5, 1-(2-Oxo-1-phenyl-2-(4-(m-tolyl)piperazin-1-yl)ethyl)pyrrolidine-2,5-dione], the “PI (TD50/ED50) (6 Hz, 32 mA)” value in data set [1] worked out at 4.8. Also, the “PI (TD50/ED50) (MES)” value in data set [2] stood at 4.6. The “PI (TD50/ED50) (scPTZ)” value in data set [3] was determined as 3.0.

As for `O=C(C(c1ccccc1)N1C(=O)CCC1=O)N1CCN(c2cccc(C(F)(F)F)c2)CC1` (racemic) [Compound 6, 1-(2-Oxo-1-phenyl-2-(4-(3-(trifluoromethyl)phenyl)piperazin-1-yl)ethyl)pyrrolidine-2,5-dione], the “PI (TD50/ED50) (6 Hz, 44 mA)” value in data set [4] is reported as 2.7. Besides, the “PI (TD50/ED50) (6 Hz, 32 mA)” value in data set [1] is on record as 8.7. Further, the “PI (TD50/ED50) (MES)” value in data set [2] came to 8.2. For the same compound, the “PI (TD50/ED50) (scPTZ)” value in data set [3] is on record as 3.3.

For the compound `O=C(C(c1ccccc1)N1C(=O)CCC1=O)N1CCN(c2cccc(C(F)F)c2)CC1` (racemic) [Compound 9, 1-(2-Oxo-1-phenyl-2-(4-(3-(difluoromethyl)phenyl)piperazin-1-yl)ethyl)pyrrolidine-2,5-dione], the “PI (TD50/ED50) (6 Hz, 44 mA)” value in data set [4] turned out to be 1.4. Also, in data set [1], the “PI (TD50/ED50) (6 Hz, 32 mA)” value is listed as 4.4. For the same compound, the “PI (TD50/ED50) (MES)” value in data set [2] is 2.8. Besides, the “PI (TD50/ED50) (scPTZ)” value in data set [3] is on record as 2.9.

Take `O=C(C(c1ccccc1)N1C(=O)CCC1=O)N1CCN(c2cccc(OC(F)(F)F)c2)CC1` (racemic) [Compound 10, 1-(2-Oxo-1-phenyl-2-(4-(3-(trifluoromethoxy)phenyl)piperazin-1-yl)ethyl)pyrrolidine-2,5-dione]: in data set [1], the “PI (TD50/ED50) (6 Hz, 32 mA)” value was found to be 1.9. Also, in data set [2], the “PI (TD50/ED50) (MES)” value is on record as 1.8. Also, the “PI (TD50/ED50) (scPTZ)” value in data set [3] is reported as more than 1.2.

With `O=C(C(c1ccccc1)N1C(=O)CCC1=O)N1CCN(c2cccc(-c3ccccc3)c2)CC1` (racemic) [Compound 13, 1-(2-(4-([1,1′-Biphenyl]-3-yl)piperazin-1-yl)-2-oxo-1-phenylethyl)pyrrolidine-2,5-dione], the “PI (TD50/ED50) (6 Hz, 32 mA)” value in data set [1] is given as 2.8. In data set [2], the “PI (TD50/ED50) (MES)” value is given as 1.7. For the same compound, in data set [3], the “PI (TD50/ED50) (scPTZ)” value is recorded as more than 0.7.

On to `O=C(C(c1ccc(F)cc1)N1C(=O)CCC1=O)N1CCN(c2cccc(C(F)(F)F)c2)CC1` (racemic) [Compound 14, 1-(1-(4-Fluorophenyl)-2-oxo-2-(4-(3-(trifluoromethyl)phenyl)piperazin-1-yl)ethyl)pyrrolidine-2,5-dione], for which the “PI (TD50/ED50) (6 Hz, 32 mA)” value in data set [1] is reported as 6.2. Also, the “PI (TD50/ED50) (MES)” value in data set [2] was 5.3.

For the compound `O=C(C(c1ccccc1)N1C(=O)CCC1=O)N1CCC(c2cccc(C(F)(F)F)c2)CC1` (racemic) [Compound 19, 1-(2-Oxo-1-phenyl-2-(4-(3-(trifluoromethyl)phenyl)piperidin-1-yl)ethyl)pyrrolidine-2,5-dione], the “PI (TD50/ED50) (6 Hz, 32 mA)” value in data set [1] came out at 6.2. For the same compound, the “PI (TD50/ED50) (MES)” value in data set [2] was 3.1. For the same compound, in data set [3], the “PI (TD50/ED50) (scPTZ)” value was more than 2.5.

Consider `O=C([C@@H](c1ccccc1)N1C(=O)CCC1=O)N1CCN(c2cccc(Cl)c2)CC1` [(R)-3, (R)-1-(2-(4-(3-chlorophenyl)piperazin-1-yl)-2-oxo-1-phenylethyl)pyrrolidine-2,5-dione], for which the “PI (TD50/ED50) (6 Hz, 32 mA)” value in data set [1] amounted to 4.5. Also, in data set [2], the “PI (TD50/ED50) (MES)” value was 3.7. The “PI (TD50/ED50) (scPTZ)” value in data set [3] was 2.8.

In the case of `O=C([C@@H](c1ccccc1)N1C(=O)CCC1=O)N1CCN(c2cccc(C(F)(F)F)c2)CC1` [(R)-6, (R)-1-(2-Oxo-1-phenyl-2-(4-(3-(trifluoromethyl)phenyl)piperazin-1-yl)ethyl) pyrrolidine-2,5-dione], the “PI (TD50/ED50) (6 Hz, 44 mA)” value in data set [4] is recorded as 4.1. For the same compound, the “PI (TD50/ED50) (6 Hz, 32 mA)” value in data set [1] is 12.0. In addition, the “PI (TD50/ED50) (MES)” value in data set [2] is recorded as 13.1. The “PI (TD50/ED50) (scPTZ)” value in data set [3] is 8.5.

As for `O=C([C@@H](c1ccccc1)N1C(=O)CCC1=O)N1CCN(c2cccc(OC(F)(F)F)c2)CC1` [(R)-10, (R)-1-(2-Oxo-1-phenyl-2-(4-(3-(trifluoromethoxy)phenyl)piperazin-1-yl)ethyl)pyrrolidine-2,5-dione], in data set [1], the “PI (TD50/ED50) (6 Hz, 32 mA)” value is 11.7. In data set [2], the “PI (TD50/ED50) (MES)” value was more than 6.6. The “PI (TD50/ED50) (scPTZ)” value in data set [3] is less than 2.5.

On to `O=C([C@H](c1ccccc1)N1C(=O)CCC1=O)N1CCN(c2cccc(C(F)(F)F)c2)CC1` [(S)-6, (S)-1-(2-Oxo-1-phenyl-2-(4-(3-(trifluoromethyl)phenyl)piperazin-1-yl)ethyl) pyrrolidine-2,5-dione], for which the “PI (TD50/ED50) (MES)” value in data set [2] is given as more than 4.4. For the same compound, the “PI (TD50/ED50) (scPTZ)” value in data set [3] is more than 4.0.

For the compound `O=C(C(c1ccccc1)N1C(=O)CCC1=O)N1CCN(c2cccc(SC(F)(F)F)c2)CC1` (stereo not shown) [Compound 12], in data set [4], the “PI (TD50/ED50) (6 Hz, 44 mA)” value is 2.6. Also, in data set [1], the “PI (TD50/ED50) (6 Hz, 32 mA)” value was 9.5. For the same compound, in data set [2], the “PI (TD50/ED50) (MES)” value is on record as 4.1. In addition, the “PI (TD50/ED50) (scPTZ)” value in data set [3] was less than 1.5.
